# The other results are listed elsewhere or left out. Most of these values are background signal.
# B1: 4-99.1 (protein)
# chain 1: QVQLQESGPGLVKPSETLSLTCAVSGDSISSGYFWGWIRQPPGKGLEYIGYISGESGNTYDNPSLKSRVTISKDTSKNQFSLNLRSVTAADTAVYYCARRTVYIGFDYWGQGVLVTVSS
# chain 2: QAAPTQPPSVSGSPGQSVTISCTGTSSDIGYYNAVSWYQQHPGKAPKLMIYEVSKRPSGVSDRFSGSKSGTTASLTISGLQAEDEADYYCSSYAGTNTYIFGAGTRLTVL
# B2: 3S41.1 (protein)
# chain 1: EVQLVESGGGLVQPGGSLRLSCATSGFTFRNYWMYWFRQAPGKGLDWVSSISDSSSNTFYSDSVKGRFTISRDNAKNTLYLQMNSLRAEDTAVYYCARRPIAAATGVYWYFDLWGPGTPITVSS
# chain 2: EIVMTQSPATLSLSPGERATLSCRASQNIGSNLAWYQQKPGRAPKLLIYDASSRATGIPDRFSASGSGTDFTLTISSLEPEDVGVYYCQQYNNWKIFGPGTKLEIK
# How the values were obtained:
# Test in all cases: fluorescence intensity of antibody binding to polysaccharide-coupled beads; higher = stronger binding
# [1] = molecular target: pneumococcal polysaccharide C-Poly-1
# [2] = molecular target: pneumococcal polysaccharide C-Poly-2
# [3] = molecular target: pneumococcal polysaccharide Pn1
# [4] = molecular target: pneumococcal polysaccharide Pn10A
# [5] = molecular target: pneumococcal polysaccharide Pn10B
# [6] = molecular target: pneumococcal polysaccharide Pn10C
# [7] = molecular target: pneumococcal polysaccharide Pn10F
# [8] = molecular target: pneumococcal polysaccharide Pn11A
# [9] = molecular target: pneumococcal polysaccharide Pn5
# [10] = molecular target: pneumococcal polysaccharide Pn6A
# [11] = molecular target: pneumococcal polysaccharide Pn6B
# [12] = molecular target: pneumococcal polysaccharide Pn6C
# [13] = molecular target: pneumococcal polysaccharide Pn6D
# [14] = molecular target: pneumococcal polysaccharide Pn7A
# [15] = molecular target: pneumococcal polysaccharide Pn7B
# [16] = molecular target: pneumococcal polysaccharide Pn7C
# [17] = molecular target: pneumococcal polysaccharide Pn7F
# [18] = molecular target: pneumococcal polysaccharide Pn8
# [19] = molecular target: pneumococcal polysaccharide Pn9A
# [20] = molecular target: pneumococcal polysaccharide Pn9L
# [21] = molecular target: pneumococcal polysaccharide Pn9N
# [22] = molecular target: pneumococcal polysaccharide Pn9V
# [23] = antibody concentration 0.1 ng/mL
# [24] = antibody concentration 0.534724 ng/mL
# [25] = antibody concentration 2.8593 ng/mL
# [26] = antibody concentration 15.2894 ng/mL
# [27] = antibody concentration 81.7561 ng/mL
# [28] = antibody concentration 437.17 ng/mL
# [29] = antibody concentration 2337.65 ng/mL
# [30] = antibody concentration 12500 ng/mL
binder,measurement,setting,value
B1,fluorescence intensity,[1]; [23],27.5 MFI
same,fluorescence intensity,[1]; [24],26.5 MFI
same,fluorescence intensity,[1]; [25],26.2 MFI
same,fluorescence intensity,[1]; [26],27.5 MFI
same,fluorescence intensity,[1]; [27],26.5 MFI
same,fluorescence intensity,[1]; [28],29.5 MFI
same,fluorescence intensity,[1]; [29],60 MFI
same,fluorescence intensity,[1]; [30],553 MFI
same,fluorescence intensity,[2]; [23],23.5 MFI
same,fluorescence intensity,[2]; [24],21 MFI
same,fluorescence intensity,[2]; [25],22 MFI
same,fluorescence intensity,[2]; [26],21.5 MFI
same,fluorescence intensity,[2]; [27],23 MFI
same,fluorescence intensity,[2]; [28],24 MFI
same,fluorescence intensity,[2]; [29],55.5 MFI
same,fluorescence intensity,[2]; [30],462 MFI
same,fluorescence intensity,[3]; [23],12.8 MFI
same,fluorescence intensity,[3]; [24],15.8 MFI
same,fluorescence intensity,[3]; [25],13.5 MFI
same,fluorescence intensity,[3]; [26],14 MFI
same,fluorescence intensity,[3]; [27],14 MFI
same,fluorescence intensity,[3]; [28],17.5 MFI
same,fluorescence intensity,[3]; [29],19 MFI
same,fluorescence intensity,[3]; [30],70.5 MFI
same,fluorescence intensity,[4]; [23],25.5 MFI
same,fluorescence intensity,[4]; [24],27 MFI
same,fluorescence intensity,[4]; [25],27.2 MFI
same,fluorescence intensity,[4]; [26],26.5 MFI
same,fluorescence intensity,[4]; [27],26 MFI
same,fluorescence intensity,[4]; [28],26.5 MFI
same,fluorescence intensity,[4]; [29],30.5 MFI
same,fluorescence intensity,[4]; [30],72 MFI
same,fluorescence intensity,[5]; [23],24.5 MFI
same,fluorescence intensity,[5]; [24],24 MFI
same,fluorescence intensity,[5]; [25],25.5 MFI
same,fluorescence intensity,[5]; [26],22.5 MFI
same,fluorescence intensity,[5]; [27],22.5 MFI
same,fluorescence intensity,[5]; [28],24.5 MFI
same,fluorescence intensity,[5]; [29],26.5 MFI
same,fluorescence intensity,[5]; [30],38.5 MFI
same,fluorescence intensity,[6]; [23],17 MFI
same,fluorescence intensity,[6]; [24],16.5 MFI
same,fluorescence intensity,[6]; [25],16.5 MFI
same,fluorescence intensity,[6]; [26],17 MFI
same,fluorescence intensity,[6]; [27],18 MFI
same,fluorescence intensity,[6]; [28],17.2 MFI
same,fluorescence intensity,[6]; [29],19.5 MFI
same,fluorescence intensity,[6]; [30],30.5 MFI
same,fluorescence intensity,[7]; [23],21 MFI
same,fluorescence intensity,[7]; [24],20 MFI
same,fluorescence intensity,[7]; [25],20.5 MFI
same,fluorescence intensity,[7]; [26],20 MFI
same,fluorescence intensity,[7]; [27],20 MFI
same,fluorescence intensity,[7]; [28],20.5 MFI
same,fluorescence intensity,[7]; [29],22 MFI
same,fluorescence intensity,[7]; [30],25.5 MFI
same,fluorescence intensity,[8]; [23],27.5 MFI
same,fluorescence intensity,[8]; [24],26.5 MFI
same,fluorescence intensity,[8]; [25],30.2 MFI
same,fluorescence intensity,[8]; [26],29.8 MFI
B2,fluorescence intensity,[9]; [26],8.75 MFI
same,fluorescence intensity,[9]; [27],8.5 MFI
same,fluorescence intensity,[9]; [28],10.5 MFI
same,fluorescence intensity,[9]; [29],13.5 MFI
same,fluorescence intensity,[10]; [23],22.8 MFI
same,fluorescence intensity,[10]; [24],23.8 MFI
same,fluorescence intensity,[10]; [25],20.5 MFI
same,fluorescence intensity,[10]; [26],21.5 MFI
same,fluorescence intensity,[10]; [27],25.5 MFI
same,fluorescence intensity,[10]; [28],22.5 MFI
same,fluorescence intensity,[10]; [29],27.5 MFI
same,fluorescence intensity,[11]; [23],18.5 MFI
same,fluorescence intensity,[11]; [24],20 MFI
same,fluorescence intensity,[11]; [25],19.2 MFI
same,fluorescence intensity,[11]; [26],19.5 MFI
same,fluorescence intensity,[11]; [27],20 MFI
same,fluorescence intensity,[11]; [28],20.5 MFI
same,fluorescence intensity,[11]; [29],22.2 MFI
same,fluorescence intensity,[12]; [23],18 MFI
same,fluorescence intensity,[12]; [24],15 MFI
same,fluorescence intensity,[12]; [25],17 MFI
same,fluorescence intensity,[12]; [26],21 MFI
same,fluorescence intensity,[12]; [27],17 MFI
same,fluorescence intensity,[12]; [28],16.5 MFI
same,fluorescence intensity,[12]; [29],18.2 MFI
same,fluorescence intensity,[13]; [23],17 MFI
same,fluorescence intensity,[13]; [24],16 MFI
same,fluorescence intensity,[13]; [25],18 MFI
same,fluorescence intensity,[13]; [26],18.5 MFI
same,fluorescence intensity,[13]; [27],16 MFI
same,fluorescence intensity,[13]; [28],17 MFI
same,fluorescence intensity,[13]; [29],19 MFI
same,fluorescence intensity,[14]; [23],20 MFI
same,fluorescence intensity,[14]; [24],21 MFI
same,fluorescence intensity,[14]; [25],20 MFI
same,fluorescence intensity,[14]; [26],21.2 MFI
same,fluorescence intensity,[14]; [27],20 MFI
same,fluorescence intensity,[14]; [28],20.2 MFI
same,fluorescence intensity,[14]; [29],33 MFI
same,fluorescence intensity,[15]; [23],16.5 MFI
same,fluorescence intensity,[15]; [24],16.5 MFI
same,fluorescence intensity,[15]; [25],17 MFI
same,fluorescence intensity,[15]; [26],16 MFI
same,fluorescence intensity,[15]; [27],15.5 MFI
same,fluorescence intensity,[15]; [28],16.5 MFI
same,fluorescence intensity,[15]; [29],19.5 MFI
same,fluorescence intensity,[16]; [23],17.5 MFI
same,fluorescence intensity,[16]; [24],17 MFI
same,fluorescence intensity,[16]; [25],15 MFI
same,fluorescence intensity,[16]; [26],14.5 MFI
same,fluorescence intensity,[16]; [27],16.5 MFI
same,fluorescence intensity,[16]; [28],16 MFI
same,fluorescence intensity,[16]; [29],18 MFI
same,fluorescence intensity,[17]; [23],14 MFI
same,fluorescence intensity,[17]; [24],15.5 MFI
same,fluorescence intensity,[17]; [25],15.5 MFI
same,fluorescence intensity,[17]; [26],15.5 MFI
same,fluorescence intensity,[17]; [27],15 MFI
same,fluorescence intensity,[17]; [28],17 MFI
same,fluorescence intensity,[17]; [29],26 MFI
same,fluorescence intensity,[18]; [23],23.5 MFI
same,fluorescence intensity,[18]; [24],21.2 MFI
same,fluorescence intensity,[18]; [25],21 MFI
same,fluorescence intensity,[18]; [26],22.5 MFI
same,fluorescence intensity,[18]; [27],21.5 MFI
same,fluorescence intensity,[18]; [28],23.5 MFI
same,fluorescence intensity,[18]; [29],27.5 MFI
same,fluorescence intensity,[19]; [23],19 MFI
same,fluorescence intensity,[19]; [24],18.2 MFI
same,fluorescence intensity,[19]; [25],18.5 MFI
same,fluorescence intensity,[19]; [26],20.5 MFI
same,fluorescence intensity,[19]; [27],20 MFI
same,fluorescence intensity,[19]; [28],19.5 MFI
same,fluorescence intensity,[19]; [29],21.5 MFI
same,fluorescence intensity,[20]; [23],16 MFI
same,fluorescence intensity,[20]; [24],17.5 MFI
same,fluorescence intensity,[20]; [25],16.5 MFI
same,fluorescence intensity,[20]; [26],17 MFI
same,fluorescence intensity,[20]; [27],18.2 MFI
same,fluorescence intensity,[20]; [28],18.2 MFI
same,fluorescence intensity,[20]; [29],19.8 MFI
same,fluorescence intensity,[21]; [23],16 MFI
same,fluorescence intensity,[21]; [24],17 MFI
same,fluorescence intensity,[21]; [25],15 MFI
same,fluorescence intensity,[21]; [26],15 MFI
same,fluorescence intensity,[21]; [27],16.5 MFI
same,fluorescence intensity,[21]; [28],17 MFI
same,fluorescence intensity,[21]; [29],18.8 MFI
same,fluorescence intensity,[22]; [23],15.8 MFI
same,fluorescence intensity,[22]; [24],15 MFI
same,fluorescence intensity,[22]; [25],15 MFI
same,fluorescence intensity,[22]; [26],15.5 MFI
same,fluorescence intensity,[22]; [27],15.5 MFI
same,fluorescence intensity,[22]; [28],15.5 MFI
same,fluorescence intensity,[22]; [29],18.5 MFI

# 3 records picked at random from those above, as already listed:
binder,measurement,setting,value
B2,fluorescence intensity,[12]; [25],17 MFI
B1,fluorescence intensity,[7]; [28],20.5 MFI
B2,fluorescence intensity,[11]; [26],19.5 MFI

# Five consecutive records already listed, for reference:
binder,measurement,setting,value
B2,fluorescence intensity,[18]; [24],21.2 MFI
same,fluorescence intensity,[18]; [25],21 MFI
same,fluorescence intensity,[18]; [26],22.5 MFI
same,fluorescence intensity,[18]; [27],21.5 MFI
same,fluorescence intensity,[18]; [28],23.5 MFI
